Measurements as given in PubChem BioAssay AID328 (DTP/NCI, 2004).
The list shows only some results of the screen, not a fair sample: it is rich in T/C values a quarter to a half above the control, in often repeated tests (any T/C) and in doses without a T/C. Further doses and runs are listed elsewhere. T/C gives the treated animals as a percentage of the vehicle group. Some entries give survivors of the animals treated and no T/C: the source files T/C as zero there, which appears to mark a toxic dose or a test without result, not a measured value. Some survivor counts are full or nearly so, which does not show that the dose was tolerated: survival well below the control is almost never listed, so the zero probably covers shortened survival too. Survivors were counted at the toxicity check, usually on the fifth day, unless a day is given; later deaths do not show. Schedule codes are those of the source, read here as Q, the interval in days (D) or hours (H), X, the number of doses. For survival time, the PubChem record calls one and a half times the control and up active, and a quarter to a half above the control has no call in these data; cut-offs in other NCI protocols can differ. Some entries hold several experiments; the results are listed from low to high. Some T/C values carry the count of animals alive at the toxicity check (mostly the fifth day); where none is given, no animal had died by that day. Starred links: 1 amine or outer side, 2 acyl side, 3 side chain; linkers in the order of their positions; H or OH if unused. Positions of bridges follow the written chain, without caps; N, C: chain ends. Non-standard residues stand in square brackets, D forms with d. Residues, ends and D or L forms follow the SMILES beside them. Chains are numbered I, II in the order given. Actinocin(1to9) = Cc1c2oc3c(C)ccc(C(=O)[*:2])c3nc-2c(C(=O)[*:1])c(N)c1=O; NMeV = CN[CH](C(=O)O)C(C)C; Aze = O=C(O)[CH]1CCN1; Sar = CNCC(=O)O

Test system: BDF1 mice, P388 leukemia ip, median survival T/C
Test: NCI In Vivo Anticancer Drug Screen. Data for tumor model P388 Leukemia (intraperitoneal) in B6D2F1 (BDF1) mice
Details: T/C endpoint: median survival time, higher T/C = longer survival
Summary of the method: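 Antitumour effect was judged in vivo: survival in drug-treated mice, normalised to that of vehicle-dosed controls, gives the reported T/C.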

[1] = dose: 200.0 mg/kg/injection, schedule: Q01DX009 (ip), vehicle: saline

With `Cc1c2oc3c(C)ccc(C(=O)NC4C(=O)NC(C(C)C)C(=O)N5CCCC5C(=O)N(C)CC(=O)N(C)C(C(C)C)C(=O)OC4C)c3nc-2c(C(=O)NC2C(=O)NC(C(C)C)C(=O)N3CCC3C(=O)N(C)CC(=O)N(C)C(C(C)C)C(=O)OC2C)c(N)c1=O` (configuration not stated) (I: TV[Aze][Sar][NMeV] / II: TVP[Sar][NMeV]; ester I:1-I:C, II:1-II:C; linker I:N-II:N via Actinocin(1to9); configuration not given here) the T/C (dose: 75.0 micrograms/kg/injection, schedule: Q04DX003 (ip), vehicle: saline + alcohol) was 132 % of control and the T/C (dose: 1200.0 micrograms/kg/injection, schedule: Q04DX003 (ip), vehicle: saline + alcohol) was 145 % of control.

For `CN(C)/N=N/c1[nH]ncc1C(N)=O`, the survivor count (dose: 200.0 mg/kg/injection, schedule: Q01DX009 (ip), vehicle: Klucel (hydroxypropylcellulose) (HPC)) was 5 of 6 and the survivor count (dose: 400.0 mg/kg/injection, schedule: Q04DX003 (ip), vehicle: alcohol) was 6 of 6.

With `C[S+](C)N(c1ccc(Cl)cc1)C(C)(C)C` the survivor count (dose: 100.0 mg/kg/injection, schedule: Q01DX001 (ip), vehicle: saline) was 0 of 6.

In the case of `NC(N)=N/N=C\c1c2ccccc2cc2ccccc12`, the T/C (dose: 0.78 mg/kg/injection, schedule: Q01DX009 (ip), vehicle: other) is reported as 125 % of control and the T/C (dose: 1.56 mg/kg/injection, schedule: Q01DX009 (ip), vehicle: other) is reported as 149 % of control.

In the case of `COc1cc2c(cc1OC)CC[N+](C)=C2`, the T/C (dose: 25.0 mg/kg/injection, schedule: Q04DX003 (ip), vehicle: saline) is reported as 130 % of control, the survivor count (dose: 100.0 mg/kg/injection, schedule: Q01DX009 (ip), vehicle: saline) is reported as 2 of 6 and the survivor count [1] is reported as 0 of 6.

With `CC(=O)OC(C)(C)/C=C/C(=O)[C@](C)(O)[C@H]1[C@H](O)C[C@@]2(C)[C@@H]3CC=C4[C@@H](C[C@H](O)[C@H](O)C4(C)C)[C@]3(C)C(=O)C[C@]12C` the survivor count (dose: 266.0 mg/kg/injection, schedule: Q01DX010 (ip), vehicle: saline) was 6 of 6, the survivor count (dose: 400.0 mg/kg/injection, schedule: Q01DX010 (ip), vehicle: saline) was 1 of 6 and the survivor count (dose: 600.0 mg/kg/injection, schedule: Q01DX010 (ip), vehicle: saline) was 0 of 6.

In the case of `O=S(=O)(F)c1cc(C[P+](c2ccccc2)(c2ccccc2)c2ccccc2)ccc1Cl`, the T/C (dose: 4.0 mg/kg/injection, schedule: Q01DX009 (ip), vehicle: saline with Tween-80) is reported as 131 % of control, the T/C (dose: 6.25 mg/kg/injection, schedule: Q01DX009 (ip), vehicle: saline with Tween-80) is reported as 140 % of control and the T/C (dose: 8.0 mg/kg/injection, schedule: Q01DX009 (ip), vehicle: saline with Tween-80) is reported as 136 % of control. For the same compound, the T/C (dose: 8.0 mg/kg/injection, schedule: Q01DX009 (ip), vehicle: saline) was 135 % of control, the T/C (dose: 12.0 mg/kg/injection, schedule: Q01DX009 (ip), vehicle: Klucel (hydroxypropylcellulose) (HPC)) was 127 % of control and the T/C (dose: 12.0 mg/kg/injection, schedule: Q01DX009 (ip), vehicle: saline) was 135 % of control. For the same compound, the T/C (dose: 12.5 mg/kg/injection, schedule: Q01DX009 (ip), vehicle: saline with Tween-80) was 135 % of control [5 of 6 alive], the T/C (dose: 18.0 mg/kg/injection, schedule: Q01DX009 (ip), vehicle: Klucel (hydroxypropylcellulose) (HPC)) was 127 % of control and the T/C (dose: 18.0 mg/kg/injection, schedule: Q01DX009 (ip), vehicle: saline) was 140 % of control.

`CN=NNCc1ccccc1` was tested, and the T/C (dose: 6.25 mg/kg/injection, schedule: Q01DX005 (ip), vehicle: saline) was 137 % of control [4 of 5 alive].

`CC(Nc1ccccc1)(C(N)=O)c1ccccc1` (configuration not stated) was tested, and the survivor count (dose: 100.0 mg/kg/injection, schedule: Q01DX001 (ip), vehicle: saline with Tween-80) was 6 of 6.

For `CC1(C)COCN1COC1CCCCC1`, the T/C (dose: 50.0 mg/kg/injection, schedule: Q01DX009 (ip), vehicle: saline with Tween-80) was 139 % of control and the T/C (dose: 100.0 mg/kg/injection, schedule: Q01DX009 (ip), vehicle: saline with Tween-80) was 138 % of control.

For `CC1OC(OC2CCCc3c(O)c4c(c(O)c32)C(=O)c2ccccc2C4=O)CC(N)C1O` (configuration not stated), the survivor count (dose: 32.0 mg/kg/injection, schedule: Q01DX009 (ip), vehicle: water) was 0 of 6.

In the case of `CC[As](=O)(O)CC`, the survivor count (dose: 50.0 mg/kg/injection, schedule: Q01DX009 (ip), vehicle: saline) is reported as 6 of 6, the survivor count (dose: 88.0 mg/kg/injection, schedule: Q01DX009 (ip), vehicle: saline) is reported as 6 of 6 and the survivor count (dose: 100.0 mg/kg/injection, schedule: Q04DX003 (ip), vehicle: saline) is reported as 6 of 6. The T/C [1] was 131, 145, 149 % of control and the T/C (dose: 300.0 mg/kg/injection, schedule: Q01DX009 (ip), vehicle: saline) was 131 % of control.
